Measured values published in the supplement of paper PMC5949888.
Most values lie at the floor of the assay. Slopes are relative: functional sequences can read slightly below zero.

test system: Saccharomyces cerevisiae PS128 hsf1 delta, HSF1(1-493) fusion; assay: growth estimate (transactivation domain function in HSF1 fusion, heat-shock survival) (a.u. (slope of normalised read count over time)); higher = stronger growth at 37°C, i.e. more transactivation activity; conditions: library: random library

Substance	growth estimate
GEVSSAPTGGSSEDHDMYES	< -0.25
AKVIVRLRSLGVHIGTGVRR	< -0.25
SDFLDNLRR	< -0.25
RIPGNTTCLIPVGGPHDVVS	< -0.25
ANGISFVLARQVFNEVQQWW	-0.246
GRTYTKQTGWPRLSLVINHR	< -0.25
AHESVKGGENANSLRRHSFD	< -0.25
AFDARNSLQRGGGGPGSLKI	-0.245
SRRCASEH	< -0.25
LGVSSSRLHTNHMDPPKKPR	< -0.25
LDLTNDRKVGRLDS	< -0.25
ALLGSRVIGDFNSGHW	< -0.25
CFKASRYSDSDI	< -0.25
KLHEIGRVSLAVSLIA	< -0.25
CDAEKRQRAELHS	< -0.25
TGNGLPRDFDPD	< -0.25
PWKQGMEMCREWSQLMP	< -0.25
PLLLPHVMVLIDGGKMSTLH	< -0.25
LGPDGPE	< -0.25
VDSSCIGLRRLSII	< -0.25
VVKSATRADVNSGGRESKSE	< -0.25
ARREMPRLMRHPAFLGQTVP	< -0.25
KHGRLPRFIRE	< -0.25
QLEREQLLFVTCLCNPAYQE	< -0.25
CLK	-0.245

Substance	growth estimate
TRVCMKEAGSGLFCPFCENL	< -0.25
GSLFARIVRASKWA	< -0.25
SDVSVVPTLAQLG	< -0.25
GWN	< -0.25
EHSG	< -0.25
LALWRGGRRISTRMTYCMSL	< -0.25
VCI	< -0.25
AGWRRHCPRSGWVGMHGDTD	< -0.25
PLGQTSLIPNNGKSNCSECL	< -0.25
AWSPTLPR	< -0.25
PLT	< -0.25
RIFRNKLQTFIVCSDVRTGT	< -0.25
CREVRDLRSFWVLTRLAIRQ	< -0.25
TACA	< -0.25
RRISVVEIGGGRGVEYTREH	< -0.25
QHRRELPGTVLFY	< -0.25
RENSILRWARPKLFSILTLY	< -0.25
VIQATRATSEPVART	< -0.25
YVRWSEKLTPGAGDTRVAGM	< -0.25
RPPE	< -0.25
QKGKQGLSMVSQKVNEEVSE	< -0.25
GSGVKTDKRPNGRNCNFVLP	< -0.25
WDRGESVRVVPATCLIIFVR	< -0.25
LVRRLRCPDAATGTSVTPTA	< -0.25
TWGNTCILGIACQLLLYLSW	-0.248

Substance	growth estimate
LLKLRNLETRPCMGPDRAME	< -0.25
FGRSDSRALQITLLKSRSCM	< -0.25
THSTFARKPAQVR	< -0.25
LITFEGPKAG	< -0.25
IREQSTV	-0.248
SLNRPCRTAQGGGISRTCRW	< -0.25
SSVCMYCSLEFMHRSYAGTR	< -0.25
SRDRHCDDLRGLKVWGRSPH	< -0.25
QRQAGLRLSGSRSGLYHPYH	< -0.25
LEPLAPY	< -0.25
TLSRVGIGSSSMGQGRVGGL	< -0.25
YSVLGNEFWVTLLNPALASH	< -0.25
IRVTCIRKSVVQGVGKS	< -0.25
KFCPG	< -0.25
KNDLGWARRISG	< -0.25
SWDRLSRRP	< -0.25
SRAWFPWYTVETMWV	< -0.25
GGDSS	< -0.25
RLTLCTLRYCNDLPPCADAD	< -0.25
GSYVADNQGDGTRLALPMR	< -0.25
HTASVRIPVALLGRLSPRFE	< -0.25
LDTGR	< -0.25
LSCNLRHRKTSNFAPERACP	< -0.25
WTGKRQTRYCLR	< -0.25
GPRTCPVSRAIIRTGRNGFM	< -0.25

Substance	growth estimate
CFCDEFQVHATCVRGQGNQG	< -0.25
EPLKKMDVTCRGRHLGYAVF	< -0.25
FCLVGSYGAAGSAPCTAAAG	< -0.25
TVVRADALVVA	< -0.25
SRLELSGMLPDR	< -0.25
VNNLAIKKEGKGGLERRRLC	< -0.25
GLSVQHQSMPLQFF	< -0.25
DGGKVRPSPPAPPTSASLSR	< -0.25
GAIGGR	< -0.25
WCT	< -0.25
VTSIK	< -0.25
IMECRGLARVAVCGVLFCST	-0.247
AASMPQTWSQGLDNNIALVL	< -0.25
CRVADSQNLFDEKVGLLGYC	< -0.25
YSRLFTKSHNVQDS	< -0.25
WLEMTGDPAWAALRQSTVIG	< -0.25
SSVSYL	< -0.25
DLSVRSWTGAACVLEPPDSI	< -0.25
DVSTRPGYQIPERVGRCGER	< -0.25
LRSTTLAGMVLLQSF	< -0.25
HSLA	< -0.25
WYAGSRYQTPLPVWRWITRA	< -0.25
SSGSSSFFGHLQEVSIYPDL	-0.243
